Measured values reported in patent US20230391879A1 (INTERVET, published 2023).
No constants are given. Whether binding was seen depends on the method and setting. Some results given as binding are weak or reduced against the parent protein; the word gives no strength.

Molecular target: T1, Canine IL-31RA ECD-10His (canine)
T1 construct: made in HEK-293 or CHO cells and coated on the ELISA plates; also called canine IL-31 receptor alpha extracellular domain HIS-tagged protein; cIL-31RA
T1 chain: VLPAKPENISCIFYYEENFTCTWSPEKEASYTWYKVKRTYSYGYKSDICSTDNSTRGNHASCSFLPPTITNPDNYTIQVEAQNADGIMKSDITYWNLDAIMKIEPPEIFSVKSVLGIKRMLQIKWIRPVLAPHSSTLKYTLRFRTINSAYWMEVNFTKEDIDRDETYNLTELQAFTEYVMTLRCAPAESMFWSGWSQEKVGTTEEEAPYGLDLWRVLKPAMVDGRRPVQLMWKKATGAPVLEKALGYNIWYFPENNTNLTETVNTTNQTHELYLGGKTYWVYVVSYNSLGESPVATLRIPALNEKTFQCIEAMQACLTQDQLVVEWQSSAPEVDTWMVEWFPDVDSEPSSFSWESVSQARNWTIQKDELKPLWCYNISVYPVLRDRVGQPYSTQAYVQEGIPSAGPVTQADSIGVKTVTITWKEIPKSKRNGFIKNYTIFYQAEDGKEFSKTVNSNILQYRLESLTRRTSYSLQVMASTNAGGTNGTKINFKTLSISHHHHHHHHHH
Test: ELISA, IL-31RA coated

binding: binds
B1: 38A6 (antibody, V domains shown)
VH: EVQLVESGGGLVQPGRSLKLSCVASGFTFNNYWMTWIRQAPGKGLEWVASITNTGGTTYYPDSVKGRFTISRDNAKSTLYLQMNSLRSEDTATYYCTRGPTTVVGGWFAYWGQGTLVTVSS
VL: DIVMTQSPTSMSISVGDRVTMNCKASQNVGSNVDWYQQKTGQSPKVLIYRASSRSTGVPDRFTGSGSGTDFTFTISNMQAEDLAVYYCMQSNSYPPTFGGGTKLELK
